Assay [1] addresses receptor for advanced glycation end-products (RAGE), endogenous in mouse lung (mouse (endogenous in mouse lung)) (UniProt Q62151). Nature of the assay: co-IP; mouse lung lysate, IP with anti-RAGE antibody, immunoblot with anti-TOX or anti-RAGE; the legend says rTOX was injected intravenously before the lungs were lysed, the text says lung extracts were incubated with rTOX; RAGE-KO mouse lung as control; only the binder purified. (A western blot detects proteins with antibodies after separation by electrophoresis.)

Protein sequences, listed by entry. Tags and fused reporters are not part of them. Residues count along the entry.
UniProt Q62151, residues 23-402: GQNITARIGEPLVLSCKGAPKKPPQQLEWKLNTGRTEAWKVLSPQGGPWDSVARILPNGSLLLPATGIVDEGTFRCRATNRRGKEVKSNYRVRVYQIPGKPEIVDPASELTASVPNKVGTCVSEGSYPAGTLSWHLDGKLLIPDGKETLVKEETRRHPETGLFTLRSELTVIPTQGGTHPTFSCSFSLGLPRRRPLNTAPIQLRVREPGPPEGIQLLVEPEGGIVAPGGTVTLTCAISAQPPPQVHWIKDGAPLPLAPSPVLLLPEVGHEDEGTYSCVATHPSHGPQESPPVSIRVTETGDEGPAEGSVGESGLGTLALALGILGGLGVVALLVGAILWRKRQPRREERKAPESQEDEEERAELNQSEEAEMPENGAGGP
UniProt Q15109, residues 23-404: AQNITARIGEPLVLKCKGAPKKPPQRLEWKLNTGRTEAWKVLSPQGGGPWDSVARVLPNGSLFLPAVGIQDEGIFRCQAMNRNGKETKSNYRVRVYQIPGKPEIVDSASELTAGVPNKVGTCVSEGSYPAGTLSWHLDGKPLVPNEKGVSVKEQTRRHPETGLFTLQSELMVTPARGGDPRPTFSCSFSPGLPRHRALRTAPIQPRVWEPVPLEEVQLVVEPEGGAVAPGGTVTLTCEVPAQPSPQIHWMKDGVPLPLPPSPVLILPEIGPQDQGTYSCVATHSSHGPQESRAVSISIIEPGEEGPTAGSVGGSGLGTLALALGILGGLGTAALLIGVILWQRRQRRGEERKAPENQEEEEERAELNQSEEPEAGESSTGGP

Assay [2] concerns the target receptor for advanced glycation end-products (RAGE), endogenous in HUVEC (human (endogenous in HUVEC)) (UniProt Q15109). Nature of the assay: co-IP; HUVEC protein extracts incubated with rTOX; IP with anti-RAGE antibody on protein A/G magnetic beads; immunoblot with anti-TOX or anti-RAGE; RAGE-depleted HUVECs as control; only the binder purified.

Results are given in words; binding and its absence hold for the method and conditions named. Binding seen in cells or lysates may run through a third protein. Some entries that bind do so weakly or less than the wild type.

B1: recombinant thymocyte selection-associated high-mobility group box protein (rTOX) (protein, UniProt O94900 1-526)
chain: MDVRFYPPPAQPAAAPDAPCLGPSPCLDPYYCNKFDGENMYMSMTEPSQDYVPASQSYPGPSLESEDFNIPPITPPSLPDHSLVHLNEVESGYHSLCHPMNHNGLLPFHPQNMDLPEITVSNMLGQDGTLLSNSISVMPDIRNPEGTQYSSHPQMAAMRPRGQPADIRQQPGMMPHGQLTTINQSQLSAQLGLNMGGSNVPHNSPSPPGSKSATPSPSSSVHEDEGDDTSKINGGEKRPASDMGKKPKTPKKKKKKDPNEPQKPVSAYALFFRDTQAAIKGQNPNATFGEVSKIVASMWDGLGEEQKQVYKKKTEAAKKEYLKQLAAYRASLVSKSYSEPVDVKTSQPPQLINSKPSVFHGPSQAHSALYLSSHYHQQPGMNPHLTAMHPSLPRNIAPKPNNQMPVTVSIANMAVSPPPPLQISPPLHQHLNMQQHQPLTMQQPLGNQLPMQVQSALHSPTMQQGFTLQPDYQTIINPTSTAAQVVTQAMEYVRSGCRNPPPQPVDWNNDYCSSGGMQRDKALYLT
Take B1: the binding entry in assay [1] and in assay [2] was “binds” in each case.

(Values after publication PMC11214053.)
